Assay results: PMC8325961
These are yes or no findings as the source states them, for the method shown.

Chains of the proteins cited; added tags and fusions are not shown. Lines headed by an entry give the natural chain unless they say otherwise; changes in a name come on top.
UniProt Q24298: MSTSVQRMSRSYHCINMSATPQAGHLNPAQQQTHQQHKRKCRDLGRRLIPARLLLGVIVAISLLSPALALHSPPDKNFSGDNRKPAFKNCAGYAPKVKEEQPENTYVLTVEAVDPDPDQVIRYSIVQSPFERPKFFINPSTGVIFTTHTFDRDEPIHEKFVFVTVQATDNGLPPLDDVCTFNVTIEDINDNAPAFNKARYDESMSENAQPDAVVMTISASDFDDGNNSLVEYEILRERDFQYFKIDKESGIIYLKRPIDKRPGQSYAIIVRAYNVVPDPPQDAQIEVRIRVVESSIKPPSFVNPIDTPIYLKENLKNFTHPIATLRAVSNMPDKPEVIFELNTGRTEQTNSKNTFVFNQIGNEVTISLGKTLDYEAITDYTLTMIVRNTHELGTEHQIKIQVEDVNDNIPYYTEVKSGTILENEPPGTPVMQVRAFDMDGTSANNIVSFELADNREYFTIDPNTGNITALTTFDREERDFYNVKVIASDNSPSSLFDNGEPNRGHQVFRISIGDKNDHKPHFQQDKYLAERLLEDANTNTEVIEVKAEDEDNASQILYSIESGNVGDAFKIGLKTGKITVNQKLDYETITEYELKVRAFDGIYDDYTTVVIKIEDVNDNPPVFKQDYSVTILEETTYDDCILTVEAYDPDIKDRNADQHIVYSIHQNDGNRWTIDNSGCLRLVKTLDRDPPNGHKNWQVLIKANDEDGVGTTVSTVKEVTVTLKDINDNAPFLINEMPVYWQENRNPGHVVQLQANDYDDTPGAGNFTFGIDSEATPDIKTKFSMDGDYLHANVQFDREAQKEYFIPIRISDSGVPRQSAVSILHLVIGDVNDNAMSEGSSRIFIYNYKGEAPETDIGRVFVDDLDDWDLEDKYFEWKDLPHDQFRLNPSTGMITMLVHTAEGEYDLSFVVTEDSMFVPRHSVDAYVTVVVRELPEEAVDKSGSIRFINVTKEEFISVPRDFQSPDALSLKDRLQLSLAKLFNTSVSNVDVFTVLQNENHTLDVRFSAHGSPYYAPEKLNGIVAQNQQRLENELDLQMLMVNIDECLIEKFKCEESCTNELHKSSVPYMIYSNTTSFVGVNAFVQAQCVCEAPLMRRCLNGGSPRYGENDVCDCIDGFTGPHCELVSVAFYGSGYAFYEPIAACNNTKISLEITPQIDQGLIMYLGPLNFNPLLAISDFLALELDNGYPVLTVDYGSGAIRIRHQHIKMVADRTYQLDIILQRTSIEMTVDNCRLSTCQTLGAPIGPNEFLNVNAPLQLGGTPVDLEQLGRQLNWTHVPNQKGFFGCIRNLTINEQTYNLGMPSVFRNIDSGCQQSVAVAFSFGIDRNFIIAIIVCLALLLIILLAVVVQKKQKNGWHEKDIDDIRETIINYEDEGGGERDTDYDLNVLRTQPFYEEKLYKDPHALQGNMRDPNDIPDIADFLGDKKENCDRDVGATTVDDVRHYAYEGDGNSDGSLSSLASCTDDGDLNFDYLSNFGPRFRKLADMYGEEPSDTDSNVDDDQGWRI
UniProt O15943: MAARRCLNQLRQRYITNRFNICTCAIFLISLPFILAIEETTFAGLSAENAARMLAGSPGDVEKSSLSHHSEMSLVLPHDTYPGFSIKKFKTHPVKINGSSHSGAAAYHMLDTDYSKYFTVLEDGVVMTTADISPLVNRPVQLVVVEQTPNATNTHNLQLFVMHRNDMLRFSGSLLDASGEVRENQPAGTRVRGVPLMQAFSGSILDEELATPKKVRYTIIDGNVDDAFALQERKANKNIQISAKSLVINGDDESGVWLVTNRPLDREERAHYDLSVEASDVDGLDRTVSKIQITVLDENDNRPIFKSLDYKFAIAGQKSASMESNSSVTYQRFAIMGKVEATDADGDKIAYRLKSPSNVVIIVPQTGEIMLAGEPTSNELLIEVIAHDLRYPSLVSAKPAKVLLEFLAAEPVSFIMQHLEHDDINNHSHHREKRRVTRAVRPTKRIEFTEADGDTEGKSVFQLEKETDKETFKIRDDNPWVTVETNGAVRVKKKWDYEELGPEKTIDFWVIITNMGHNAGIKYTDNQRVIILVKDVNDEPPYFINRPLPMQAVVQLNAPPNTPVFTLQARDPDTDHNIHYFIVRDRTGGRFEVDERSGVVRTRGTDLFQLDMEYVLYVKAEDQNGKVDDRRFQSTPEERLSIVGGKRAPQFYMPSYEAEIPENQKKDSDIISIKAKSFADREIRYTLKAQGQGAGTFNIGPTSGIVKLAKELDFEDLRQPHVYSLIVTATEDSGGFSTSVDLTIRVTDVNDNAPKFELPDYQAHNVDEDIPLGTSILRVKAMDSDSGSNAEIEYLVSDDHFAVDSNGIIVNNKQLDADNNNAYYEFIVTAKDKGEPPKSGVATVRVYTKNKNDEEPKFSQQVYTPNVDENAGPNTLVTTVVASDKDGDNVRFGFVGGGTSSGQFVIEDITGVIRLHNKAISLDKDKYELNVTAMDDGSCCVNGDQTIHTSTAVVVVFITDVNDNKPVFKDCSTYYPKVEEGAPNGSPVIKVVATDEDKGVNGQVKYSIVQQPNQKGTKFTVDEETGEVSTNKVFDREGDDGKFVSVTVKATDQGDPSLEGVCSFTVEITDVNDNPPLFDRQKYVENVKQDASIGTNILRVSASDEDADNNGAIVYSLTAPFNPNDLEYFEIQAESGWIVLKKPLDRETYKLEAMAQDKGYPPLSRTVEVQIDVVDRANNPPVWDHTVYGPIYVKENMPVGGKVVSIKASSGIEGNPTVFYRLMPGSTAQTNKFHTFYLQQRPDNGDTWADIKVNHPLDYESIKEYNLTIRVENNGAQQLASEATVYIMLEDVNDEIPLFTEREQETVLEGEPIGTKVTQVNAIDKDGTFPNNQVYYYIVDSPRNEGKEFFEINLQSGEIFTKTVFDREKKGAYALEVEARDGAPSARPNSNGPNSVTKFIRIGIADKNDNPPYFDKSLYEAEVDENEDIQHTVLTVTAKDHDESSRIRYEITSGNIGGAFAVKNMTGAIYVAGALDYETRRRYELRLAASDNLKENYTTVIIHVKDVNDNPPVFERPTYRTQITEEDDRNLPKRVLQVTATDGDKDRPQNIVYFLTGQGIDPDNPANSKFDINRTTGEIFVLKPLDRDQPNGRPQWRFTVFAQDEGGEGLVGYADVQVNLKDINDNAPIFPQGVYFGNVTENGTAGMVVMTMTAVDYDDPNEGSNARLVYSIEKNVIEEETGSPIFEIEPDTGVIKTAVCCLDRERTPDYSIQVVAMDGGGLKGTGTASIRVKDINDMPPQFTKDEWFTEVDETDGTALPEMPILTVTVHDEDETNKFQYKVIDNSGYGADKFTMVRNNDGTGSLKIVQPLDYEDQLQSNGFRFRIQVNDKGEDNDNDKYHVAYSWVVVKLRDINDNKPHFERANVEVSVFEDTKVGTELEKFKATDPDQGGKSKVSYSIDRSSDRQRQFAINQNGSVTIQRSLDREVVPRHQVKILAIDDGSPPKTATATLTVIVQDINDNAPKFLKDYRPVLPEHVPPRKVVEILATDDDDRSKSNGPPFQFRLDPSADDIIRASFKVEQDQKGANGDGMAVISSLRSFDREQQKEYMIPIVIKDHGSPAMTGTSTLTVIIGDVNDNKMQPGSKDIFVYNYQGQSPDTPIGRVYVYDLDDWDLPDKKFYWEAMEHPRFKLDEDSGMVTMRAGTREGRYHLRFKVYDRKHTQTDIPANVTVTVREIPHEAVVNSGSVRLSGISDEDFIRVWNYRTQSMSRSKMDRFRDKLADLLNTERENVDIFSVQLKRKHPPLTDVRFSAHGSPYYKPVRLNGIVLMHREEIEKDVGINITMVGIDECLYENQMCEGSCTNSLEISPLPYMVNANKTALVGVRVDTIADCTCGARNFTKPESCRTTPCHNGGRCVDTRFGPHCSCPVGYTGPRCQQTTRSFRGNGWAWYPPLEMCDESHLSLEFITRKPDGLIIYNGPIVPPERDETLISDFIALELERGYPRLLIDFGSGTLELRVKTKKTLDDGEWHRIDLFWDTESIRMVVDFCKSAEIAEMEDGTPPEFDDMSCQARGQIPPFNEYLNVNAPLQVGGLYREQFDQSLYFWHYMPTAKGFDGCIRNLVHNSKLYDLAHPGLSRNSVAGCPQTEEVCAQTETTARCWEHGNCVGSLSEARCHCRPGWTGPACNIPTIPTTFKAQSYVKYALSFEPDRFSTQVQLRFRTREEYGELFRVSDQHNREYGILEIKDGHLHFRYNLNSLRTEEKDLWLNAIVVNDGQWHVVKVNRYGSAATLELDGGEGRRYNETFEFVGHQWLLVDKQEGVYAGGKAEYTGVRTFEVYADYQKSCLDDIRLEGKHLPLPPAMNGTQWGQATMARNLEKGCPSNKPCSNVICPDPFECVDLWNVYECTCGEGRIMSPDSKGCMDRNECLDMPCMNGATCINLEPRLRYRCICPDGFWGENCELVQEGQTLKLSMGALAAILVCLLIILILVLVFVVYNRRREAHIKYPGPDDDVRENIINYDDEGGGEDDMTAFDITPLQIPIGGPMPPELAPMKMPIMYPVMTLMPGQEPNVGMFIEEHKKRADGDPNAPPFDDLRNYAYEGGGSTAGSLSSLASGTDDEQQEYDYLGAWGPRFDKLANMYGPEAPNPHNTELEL

Molecular target: full-length DE-cadherin (DEfull) (Drosophila) (UniProt Q24298)
Assay: mixed cell aggregation assay; two populations of transfected S2 cells, marked with TagBFP or mKate2, mixed and rotated

## full-length DN-cadherin (DNfull) (from UniProt O15943)
  binding: no binding
